PubChem BioAssay AID504786 – Drosophila RNAi Screening Center | 2011
The deposit covers about 21,000 reagents; shown is a random part of those with a known target gene and a result. 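Primary screen; positive scores mean lost reporter signal, so the sign may be inverted from the usual convention.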 No sequences are given here.

Aim: 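Knock-downs reducing HIF reporter induction by the iron chelator DFO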 (primary screen)
Cell system: Drosophila S2 cells with a stable HIF luciferase reporter
Knock-down reagent: long dsRNA against Drosophila genes, about 0.2 µg dsRNA per well of a 384-well plate
Timing: three days of knock-down, then 20 h of DFO before reading
Challenge: desferrioxamine (DFO) at 100 µM, an iron chelator that mimics hypoxia, for 20 h
Read-out: 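HIF reporter luminescence in cells given 100 µM DFO for 20 h, using the mouse ldh-a hypoxia-response element, scored as per-plate z-scores; higher means greater loss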
Direction: z-score: higher = stronger loss of HIF reporter signal

no.	gene	amplicon	z-score, replicate 1	z-score, replicate 2
1	lace	DRSC03564	-0.4	-0.2
2	CG12795	DRSC00354	-0.2	-0.2
3	NANS	DRSC15743	-0.3	-0.2
4	Blos3	DRSC09573	0.1	-0.1
5	Ir56a	DRSC05776	-0.4	-0.2
6	CycA	DRSC09132	0.7	0.6
7	CycA	DRSC11123	1.8	2
8	Trax	DRSC15709	0.2	0.1
9	Vm32E	DRSC03474	-0.3	-0.3
10	CG31952	DRSC00428	-0.4	-0.3
11	lov	DRSC04279	-0.3	-0.1
12	lov	DRSC04665	-0.3	-0.5
13	RpS3A	DRSC17168	6.9	4.4
14	Cpr47Ed	DRSC07331	-0.4	0.1
15	Pepck2	DRSC06013	-0.2	-0.5
16	scramb1	DRSC09724	-0.2	-0.2
17	scramb1	DRSC10667	-0.2	0
18	scramb1	DRSC10668	-0.3	0.9

An excerpt from above, showing only “z-score, replicate 2”:
Vm32E [DRSC03474]: -0.3
CG31952 [DRSC00428]: -0.3

The results go on.
no.	gene	amplicon	z-score, replicate 1	z-score, replicate 2
19	CG13047	DRSC09928	-0.3	-0.3
20	CG12520	DRSC09892	-0.1	-0.1
21	CG15549	DRSC15087	-0.2	-0.6
22	zfh1	DRSC14014	-0.5	-0.7
23	zfh1	DRSC17098	2.3	1.4
24	Nedd4	DRSC11234	-0.2	-0.5
25	RfC3	DRSC03411	-0.1	-0.1
26	CG18231	DRSC10307	-0.2	-0.4
27	CG4325	DRSC18516	4.3	3.7
28	Cht4	DRSC04603	-0.2	-0.1
29	CG31933	DRSC00457	0	0
30	etaTry	DRSC07613	-0.2	-0.1
31	LRR	DRSC06444	-0.2	-0.3
32	oxt	DRSC08522	-0.2	-0.6
33	Obp58d	DRSC04162	-0.2	0
34	CG30376	DRSC05086	-0.2	-0.3
